# Measurements published in PubChem BioAssay AID588497 (NMMLSC, 2011).
# Among all 360,000 compounds or so, about 780 (0.22%) were called active. Inconclusive means that the source gave no clear call. Such entries were picked first, then a sample of the others. Rule as the data show it: active = inhibition above about 35% (passing the limit was not always enough); inconclusive = no clear call, values can overlap the other calls.
# System: Botulinum neurotoxin type F light chain protease (Clostridium botulinum)
# Assay: BoNT/F light chain protease inhibitors, primary screen, biochemical, flow cytometry, MLPCN library (AID 588497); also: plate controls were buffer without enzyme for full effect and enzyme alone for no effect
# Conditions: Multiplex microsphere protease cleavage assay, at 10 µM, active compounds read high
row,Structure (SMILES),inhibition
1,Cc1cc(OCc2cc(C(=O)N(C)Cc3nonc3C)no2)cc(C)c1Cl,inactive: -7.2%
2,COc1cc2c(cc1OC)CN(C(=O)CCNS(=O)(=O)c1ccc(Br)cc1)CC2,inconclusive: -0.5%
3,COc1cc(/C=C(\C#N)c2nc3ccccc3[nH]2)cc(Br)c1OCc1ccc(F)cc1,inconclusive: 11.2%
4,COc1ccc(NC(=O)CSc2nc3ccccc3c(=O)n2C)cc1,inconclusive: 23.6%
5,Cc1cc(NCC(=O)Nc2ccc(C)c(S(=O)(=O)N3CCOCC3)c2)ccc1Br,inactive: -10.7%
6,CC(C)(C)c1ccc(C(=O)NCCN2CCOCC2)cc1,inconclusive: -1.4%
7,Cc1ccccc1CC(=O)NC1CCN(Cc2ccccc2)CC1,inconclusive: -4.3%
8,O=C(c1ccccc1)N1CCCC(C(=O)N2CCN(c3ccccc3)CC2)C1 (stereo not given),inconclusive: 22.6%
9,Cc1ccc(-n2nnnc2SCc2ccccn2)cc1C,inconclusive: -2.7%
10,CCCCC1CC2=C(C(=O)OC(C)(C)O2)C(c2ccc3ccccc3c2)O1 (stereo not given),inactive: 2.9%
11,COC(=O)c1cc(Cl)c(NC(=O)c2ccc(F)cc2)cc1OC,inactive: -1.8%
12,COc1ccccc1CNC(=O)c1n[nH]c2ccccc12,inactive: 0.6%
13,CC1CCN(C(=O)COC(=O)c2ccc(Cl)nc2)CC1,inactive: 1.1%
14,O=C(c1ccccc1)N1C(=O)C(c2ccccc2)Oc2ccccc21 (stereo not given),inconclusive: -14.5%
15,c1ccc(-c2ccccc2OCCCCn2ccnc2)cc1,inconclusive: 33.4%
16,Cc1c(Br)c([N+](=O)[O-])nn1CC(=O)Nc1c(C)n(C)n(-c2ccccc2)c1=O,inactive: 2.9%
17,CCN(C(=O)COC(=O)c1ccco1)c1c(N)n(Cc2ccccc2)c(=O)[nH]c1=O,inactive: 9.6%
18,CCN1C(=O)[C@H]2[C@@H](c3ccc(C)cc3)N3C(=O)N(c4ccc(OC)cc4)C(=O)[C@@]3(C)[C@H]2C1=O,inactive: 0.9%
19,O=C1N=C(N2CCOCC2)S/C1=C/c1ccc(-c2ccccc2Cl)o1,inactive: 3%
20,C=CCNC(=O)c1cc(Cl)ccn1,inactive: 1.5%
21,COc1ccc(C(=O)NC(C)C2CC3CCC2C3)cc1 (stereo not given),inconclusive: -6.9%
22,COc1cc(C(=O)OCCc2cc3ccccc3c(=O)o2)cc(OC)c1OC,inactive: -3.6%
23,CCCN1CCN(C(=O)c2cn(CC(C)C)c(=O)c3cc(OC)c(OC)cc23)CC1,inactive: 0.8%
24,CC(=O)N1CCc2cc(S(=O)(=O)NC(CC(C)C)C(=O)Nc3cc(C)ccn3)ccc21 (stereo not given),inconclusive: -8.3%
25,CCOc1ccc(CC2c3cc(OCC)c(OCC)cc3CCN2C(=O)CN2CCN(C)CC2)cc1OCC (stereo not given),active: 34.7%

# Some of these compounds in order of length of the SMILES, descending.
row,Structure (SMILES),inhibition
18,CCN1C(=O)[C@H]2[C@@H](c3ccc(C)cc3)N3C(=O)N(c4ccc(OC)cc4)C(=O)[C@@]3(C)[C@H]2C1=O,inactive: 0.9%
7,Cc1ccccc1CC(=O)NC1CCN(Cc2ccccc2)CC1,inconclusive: -4.3%
12,COc1ccccc1CNC(=O)c1n[nH]c2ccccc12,inactive: 0.6%
